This is one part of the list. Many values rest on one well or one pass, so single values are uncertain.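 The apoptosis fraction was the count of cleaved-PARP antibody-stained nuclei relative to all DNA-stained nuclei, imaged in 1,536-well plates. Screening doses were set so most cells survived, and baseline and induced cleaved-PARP levels vary greatly across cell lines.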

In this test the test system is WM1745. Description: cleaved PARP positive nuclei fraction relative to DMSO control; melanoma cells; higher = more apoptosis. The note with it: library dose: low library concentration; 72 h.
For `Cn1cnc2c(F)c(Nc3ccc(Br)cc3Cl)c(C(=O)NOCCO)cc21` [selumetinib] + COc1ccc(-c2ccc3c(N4CCOCC4)nc(N4C[C@@H](C)O[C@@H](C)C4)nc3n2)cc1CO [KU0063794] (first compound 0.015 µM, partner dose 0.02 µM), the “cleaved PARP positive nuclei fraction” value was 75.8%.
Consider `CC1(C)CCC(c2ccc(Cl)cc2)=C(CN2CCN(c3ccc(C(=O)NS(=O)(=O)c4ccc(N[C@H](CCN5CCOCC5)CSc5ccccc5)c(S(=O)(=O)C(F)(F)F)c4)cc3)CC2)C1` + CN(NC(=O)CC(=O)NN(C)C(=S)c1ccccc1)C(=S)c1ccccc1 [STA4783] (first compound 0.4 µM, partner dose 0.006 µM), for which the “cleaved PARP positive nuclei fraction” value worked out at 1080%.
Take `NC(=O)c1ccc(N(C(N)=O)c2c(F)cccc2F)nc1-c1ccc(F)cc1F` + C=CCNC1=C2C[C@@H](C)C[C@H](OC)[C@H](O)[C@@H](C)/C=C(\C)[C@H](OC(N)=O)[C@@H](OC)/C=C\C=C(/C)C(=O)NC(=CC1=O)C2=O [Tanespimycin] (first compound 0.4 µM, partner dose 0.002 µM): the “cleaved PARP positive nuclei fraction” value amounted to 107%.
The value for `Cn1cnc2c(F)c(Nc3ccc(Br)cc3Cl)c(C(=O)NOCCO)cc21` [selumetinib] + Cn1c(Nc2ccc(C(F)(F)F)cc2)nc2cc(Oc3ccnc(-c4ncc(C(F)(F)F)[nH]4)c3)ccc21 [CHIR265] (first compound 0.015 µM, partner dose 0.08 µM) was 131%.
With `NC(=O)c1ccc(N(C(N)=O)c2c(F)cccc2F)nc1-c1ccc(F)cc1F` + C[C@]1(c2nc3c(C(N)=O)cccc3[nH]2)CCCN1 [Veliparib] (first compound 0.4 µM, partner dose 1.4 µM) the figure was 103%.
